# Test results: the supplement of paper PMC8728848
# The other results are listed elsewhere or left out.
# Experiments:
# Test in all cases: glycan array binding signal (z-score within array); higher = stronger binding
# Conditions in all cases: glycan notation: IUPAC condensed, linker removed
# [1] = test system: Gal(b1-3)GlcNAc(b1-3)Gal(b1-4)[Fuc(a1-3)]GlcNAc(b1-6)[Gal(b1-3)GlcNAc(b1-3)]Gal(b1-4)Glc
# How it was run: (§1)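 From the Consortium for Functional Glycomics database, 3228 arrays were curated, keeping only those whose protein sequence was available. Binding is given as a within-array Z-score averaged across arrays sharing a protein sequence and across linkers. Negative Z-scores can be read as non-binding.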
# [2] = test system: Gal(b1-3)GlcNAc(b1-3)Gal(b1-4)[Fuc(a1-3)]GlcNAc
# How it was run: as §1
# [3] = test system: Gal(b1-3)GlcNAc(b1-3)GalNAc
# How it was run: as §1
# [4] = test system: Gal(b1-3)GlcNAc(b1-6)Gal(b1-4)GlcNAc
# How it was run: as §1
# [5] = test system: Gal(b1-3)GlcNAc(b1-6)GalNAc
# How it was run: as §1
# [6] = test system: Gal(b1-3)GlcNAc(b1-6)[Gal(b1-3)]GalNAc
# How it was run: as §1
# Gal(b1-3)GlcNAc6S = test system: Gal(b1-3)GlcNAc6S
# How it was run: as §1
# Gal(b1-3)GlcNAc = test system: Gal(b1-3)GlcNAc
# How it was run: as §1
# [7] = test system: Gal(b1-3)[Fuc(a1-4)]GlcNAc(b1-2)Man(a1-3)[Gal(b1-3)[Fuc(a1-4)]GlcNAc(b1-2)Man(a1-6)]Man(b1-4)GlcNAc(b1-4)[Fuc(a1-6)]GlcNAc
# How it was run: as §1
# [8] = test system: Gal(b1-3)[Fuc(a1-4)]GlcNAc(b1-2)Man
# How it was run: as §1
# [9] = test system: Gal(b1-3)[Fuc(a1-4)]GlcNAc(b1-3)Gal(b1-3)[Fuc(a1-4)]GlcNAc
# How it was run: as §1
# [10] = test system: Gal(b1-3)[Fuc(a1-4)]GlcNAc(b1-3)Gal(b1-4)[Fuc(a1-3)]GlcNAc
# How it was run: as §1
# [11] = test system: Gal(b1-3)[Fuc(a1-4)]GlcNAc(b1-6)GalNAc
# How it was run: as §1
# [12] = test system: Gal(b1-3)[Fuc(a1-4)]GlcNAc
# How it was run: as §1
# [13] = test system: Gal(b1-3)[GlcNAc(b1-6)]GalNAc
# How it was run: as §1
# [14] = test system: Gal(b1-3)[Neu5Ac(a2-6)]GalNAc
# How it was run: as §1
# [15] = test system: Gal(b1-3)[Neu5Ac(a2-6)]GlcNAc(b1-4)Gal(b1-4)Glc
# How it was run: as §1
# [16] = test system: Gal(b1-3)[Neu5Ac(b2-6)]GalNAc
# How it was run: as §1
# [17] = test system: Gal(b1-4)GalNAc(a1-3)[Fuc(a1-2)]Gal(b1-4)GlcNAc
# How it was run: as §1
# [18] = test system: Gal(b1-4)GalNAc(b1-3)[Fuc(a1-2)]Gal(b1-4)GlcNAc
# How it was run: as §1
# Gal(b1-4)Gal = test system: Gal(b1-4)Gal
# How it was run: as §1
# Gal(b1-4)Glc6S = test system: Gal(b1-4)Glc6S
# How it was run: as §1
# [19] = test system: Gal(b1-4)GlcNAc(a1-6)Gal(b1-4)GlcNAc
# How it was run: as §1
# [20] = test system: Gal(b1-4)GlcNAc(b1-2)Man(a1-3)Man(b1-4)GlcNAc(b1-4)GlcNAc
# How it was run: as §1
# [21] = test system: Gal(b1-4)GlcNAc(b1-2)Man(a1-3)[Gal(b1-4)GlcNAc(b1-2)Man(a1-6)]Man(b1-4)GlcNAc(b1-4)GlcNAc
# How it was run: as §1
# [22] = test system: Gal(b1-4)GlcNAc(b1-2)Man(a1-3)[Gal(b1-4)GlcNAc(b1-2)Man(a1-6)]Man(b1-4)GlcNAc(b1-4)[Fuc(a1-6)]GlcNAc
# How it was run: as §1
# [23] = test system: Gal(b1-4)GlcNAc(b1-2)Man(a1-3)[Gal(b1-4)GlcNAc(b1-2)Man(a1-6)][Gal(b1-4)GlcNAc(b1-4)]Man(b1-4)GlcNAc(b1-4)[Fuc(a1-6)]GlcNAc
# How it was run: as §1
# [24] = test system: Gal(b1-4)GlcNAc(b1-2)Man(a1-3)[Gal(b1-4)GlcNAc(b1-2)Man(a1-6)][GlcNAc(b1-4)]Man(b1-4)GlcNAc(b1-4)[Fuc(a1-6)]GlcNAc
# How it was run: as §1
# [25] = test system: Gal(b1-4)GlcNAc(b1-2)Man(a1-3)[GlcNAc(b1-2)Man(a1-6)]Man(b1-4)GlcNAc(b1-4)GlcNAc
# How it was run: as §1
# [26] = test system: Gal(b1-4)GlcNAc(b1-2)Man(a1-3)[GlcNAc(b1-4)][Gal(b1-4)GlcNAc(b1-2)Man(a1-6)]Man(b1-4)GlcNAc(b1-4)GlcNAc
# How it was run: as §1
# [27] = test system: Gal(b1-4)GlcNAc(b1-2)Man(a1-3)[Man(a1-6)]Man(b1-4)GlcNAc(b1-4)GlcNAc
# How it was run: as §1
# [28] = test system: Gal(b1-4)GlcNAc(b1-2)Man(a1-6)Man(b1-4)GlcNAc(b1-4)GlcNAc
# How it was run: as §1
substance,measurement,setting,value
MpAFP RI GFP (Marinomonas primoryensis),glycan array binding signal (z-score),[1],-0.216
same,glycan array binding signal (z-score),[2],-0.347
same,glycan array binding signal (z-score),[3],-0.671
same,glycan array binding signal (z-score),[4],-0.657
same,glycan array binding signal (z-score),[5],-0.483
same,glycan array binding signal (z-score),[6],-0.446
same,glycan array binding signal (z-score),Gal(b1-3)GlcNAc6S,-0.587
same,glycan array binding signal (z-score),Gal(b1-3)GlcNAc,-0.331
same,glycan array binding signal (z-score),[7],2.74
same,glycan array binding signal (z-score),[8],0.529
same,glycan array binding signal (z-score),[9],-0.366
same,glycan array binding signal (z-score),[10],-0.369
same,glycan array binding signal (z-score),[11],0.225
same,glycan array binding signal (z-score),[12],-0.41
same,glycan array binding signal (z-score),[13],-0.258
same,glycan array binding signal (z-score),[14],-0.061
same,glycan array binding signal (z-score),[15],-0.689
same,glycan array binding signal (z-score),[16],-1.1
same,glycan array binding signal (z-score),[17],-0.623
same,glycan array binding signal (z-score),[18],-0.643
same,glycan array binding signal (z-score),Gal(b1-4)Gal,-0.4
same,glycan array binding signal (z-score),Gal(b1-4)Glc6S,-0.553
same,glycan array binding signal (z-score),[19],-0.753
same,glycan array binding signal (z-score),[20],-0.163
same,glycan array binding signal (z-score),[21],-0.144
same,glycan array binding signal (z-score),[22],0.285
same,glycan array binding signal (z-score),[23],-0.395
same,glycan array binding signal (z-score),[24],-0.525
same,glycan array binding signal (z-score),[25],-0.494
same,glycan array binding signal (z-score),[26],-0.519
same,glycan array binding signal (z-score),[27],0.914
same,glycan array binding signal (z-score),[28],-0.51

# Three records picked at random from the list so far, as already listed:
substance,measurement,setting,value
MpAFP RI GFP (Marinomonas primoryensis),glycan array binding signal (z-score),[27],0.914
same,glycan array binding signal (z-score),[16],-1.1
same,glycan array binding signal (z-score),[24],-0.525
